Assay results reported in patent publication EP0029617A1, “Use of tertiary heterocyclic amines as synergists in pesticides; derivatives of cycloamines” (priority 1979, dated 1981).
Like-named read-outs stand apart in the source and are kept apart here. The name of at least one read-out is uncertain.

Tested on: Kornkäfer (sitophilus granarius L)
Assay type: in vivo
Procedure: Test von tertiären, heterocyclischen Aminen allein und im Gemisch mit Pyrethroiden an Kornkäfern (sitophilus granarius L)
In Petrischalen mit 15 cm Durchmesser mit talcumbepuderten Seitenwänden, um das Entfliehen der Kornkäfer zu verhindern, wurden jeweils 2 ml der Acetonlösungen einpipettiert und durch vorsichtiges Schwenken der Schalen gleichmäßig auf dem Boden verteilt. Nach dem Abdampfen des Acetons und dem Antrocknen der Beläge wurden in jede Schale 25 Kornkäfer eingezählt. Nach einer Stunde wurde jeweils ein 12,5 cm Rundfilter in die Schalen eingelegt, um den Käfern das Befreien aus der Rückenlage zu ermöglichen, was auf der glatten Glasplatte nicht möglich ist. Die lichtscheuen Käfer verkrochen sich mit Vorliebe unter die Filter und blieben so ständig mit den Wirkstoffbelägen in Kontakt. Alle Versuche liefen mit 3 Wiederholungen. Nach 3 h wurden die toten Käfer ausgezählt.
In der Tabelle 3 ist jeweils der Durchschnitt der Summe der 4 Einzelwerte angegeben. 25 tote Kornkäfer entsprechen dabei einer Wirkung von 100 %. Die Temperaturen betrugen während der Tests im Durchschnitt 19 - 21°C. Der synergistische Faktor berechnet sich analog wie in Beispiel 1 angegeben.
Die zu prüfenden tertiären, heterocyclischen Amine wurden - mit 1 mg Wirkstoff pro ml als Acetonlösungen angesetzt. Sie wurden im Verhältnis 1 : 1 mit Ripcord bzw. Talcord, die mit 0,01 mg Wirkstoff pro ml als Acetonlösung vorlagen, gemischt. Die Einzelkomponenten wurden im Verhältnis 1 : 1 mit Aceton gemischt.
Auch bei diesen Versuchen zeigten die Kontrollversuche stets bei Versuchsende eine Mortalität der Kornkäfer von 0 %.
Die synergistische Wirkung der tertiären, heterocyclischen Amine auf die Pyrethroide ist auch dann noch deutlich, wenn das Amin in wesentlich niederen Aufwandmengen eingesetzt wird, als dies in Beispiel 3 beschrieben wurde. Die Ergebnisse sind in der Tabelle 4 zusammengestellt. Dieser Versuch zeigt auch, daß Amine mit insektiziden Eigenschaften, wenn sie in Konzentrationen unterhalb ihres insektiziden Wirkungsbereiches eingesetzt werden, immer noch gute synergistische Wirkungen im Gemisch mit Pyrethroiden zeigen. Die Versuche wurden wie im Beispiel 3 beschrieben mit Kornkäfern durchgeführt. Es wurden lediglich die Konzentrationen der eingesetzten tertiären, heterocyclischen Amine geändert. Für die Verdünnung Pyrethroid : Amin = 1 : 10 wurde das Amin mit 0,1 mg Wirkstoff/ml Acetonlösung eingesetzt. Für die Verdünnung 1 : 5 mit 0,05 mg Wirkstoff/ml.

[1] = amine 1 mg/ml + Ripcord 0,01 mg/ml
[2] = amine 1 mg/ml + Talcord 0,01 mg/ml

Compound | Synergistischer Faktor bei Ripcord (Pyrethroid : Amin 1 : 10) | Synergistischer Faktor bei Talcord (Pyrethroid : Amin 1 : 10) | Synergistischer Faktor bei Ripcord [1] | Synergistischer Faktor bei Talcord [2] | Synergistischer Faktor bei Ripcord (Pyrethroid : Amin 1 : 5) | Synergistischer Faktor bei Talcord (Pyrethroid : Amin 1 : 5)
CCCCCCCCCCCN1CCCCCC1 [N-1-Undecyl-hexamethylenimin] | 2,92 | 7,55 | 2,32 | 8,37 | – | –
c1ccc(CN2CCCCC2)cc1 [N-Benzyl-piperidin] | 3,17 | 7,55 | 3,01 | 3,29 | – | –
CCCCCCCCCCCN1CCCCC1 [N-1-Undecyl-piperidin] | 3,09 | 6,19 | – | – | 2,88 | 5,48
c1cc2c(cc1CN1CCCCC1)OCO2 [N-Piperonyl-piperidin] | 2,34 | 2,47 | 2,88 | 6,60 | 2,67 | 5,65
